Experimental findings from paper PMC3585328 are described below.

The chains behind the UniProt entries cited, without tags or fusion partners.
UniProt Q9LQX5: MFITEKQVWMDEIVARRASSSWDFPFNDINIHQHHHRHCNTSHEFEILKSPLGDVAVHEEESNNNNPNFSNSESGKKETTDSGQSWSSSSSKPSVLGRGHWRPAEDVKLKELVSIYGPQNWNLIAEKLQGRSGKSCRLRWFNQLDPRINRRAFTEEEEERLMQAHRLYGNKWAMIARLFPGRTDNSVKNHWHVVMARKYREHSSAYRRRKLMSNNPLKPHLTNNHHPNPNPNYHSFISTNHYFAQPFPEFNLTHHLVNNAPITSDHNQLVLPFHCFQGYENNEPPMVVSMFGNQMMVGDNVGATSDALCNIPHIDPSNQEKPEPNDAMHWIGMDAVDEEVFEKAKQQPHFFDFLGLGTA
UniProt Q9SEZ4: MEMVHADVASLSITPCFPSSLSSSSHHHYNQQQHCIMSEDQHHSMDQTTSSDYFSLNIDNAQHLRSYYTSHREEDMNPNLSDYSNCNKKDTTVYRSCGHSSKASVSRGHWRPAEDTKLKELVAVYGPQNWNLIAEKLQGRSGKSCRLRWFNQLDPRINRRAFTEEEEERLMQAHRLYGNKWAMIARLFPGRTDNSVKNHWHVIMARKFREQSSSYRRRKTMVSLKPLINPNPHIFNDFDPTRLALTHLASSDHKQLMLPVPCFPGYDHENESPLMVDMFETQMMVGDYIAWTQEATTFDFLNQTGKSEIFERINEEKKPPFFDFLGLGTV

No constants are given. Whether binding was seen depends on the method and setting.

This assay concerns the target T1, AtAS2 (Arabidopsis) (UniProt O04479).
T1 sequence: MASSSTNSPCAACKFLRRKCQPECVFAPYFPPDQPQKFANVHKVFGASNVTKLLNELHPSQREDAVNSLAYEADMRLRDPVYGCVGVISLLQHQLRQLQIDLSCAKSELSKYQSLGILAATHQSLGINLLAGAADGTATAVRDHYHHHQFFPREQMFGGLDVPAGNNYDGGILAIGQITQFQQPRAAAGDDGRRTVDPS
The experiment in a line: two-hybrid; Gal4-based system (Clontech); baits in pGBKT7, preys in pGADT7, co-transformed into yeast; selection on SD/-Trp-Leu-His-Ade medium, positive clones assayed for X-gal activity.

Regarding AtLOF1 (from UniProt Q9LQX5 1-359), the binding result is reported as “no binding”.
As for AtLOF2 (from UniProt Q9SEZ4 1-330), the binding result is on record as “no binding”.
